Data as given in PubChem BioAssay AID1259308 (NCATS, 2017).
Here is an unselected part of about 59,000 deposited reagents. About 1,510 of all reagents (2.6%) count as active. 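Calls use total luciferase alone and ignore viability, so some active siRNAs may act by altering cell number.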 The numbers tell different reagents against one gene apart. Further read-outs or replicates are left out here. No sequences are given here.

- Screen: 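Genes whose loss raises luciferase production in HEK293 cells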 (primary screen)
- Cell system: human HEK293 embryonic kidney cells stably expressing firefly luciferase (HEK-CMV-Luc2-Hygro)
- Reagent: single siRNA against human genes, 0.8 pmol siRNA per well
- Duration: 72 h
- Read-out: 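Luciferase light (ONE-Glo) measured on one replicate plate set and viability (CellTiter-Glo) on the other, scaled to a negative control siRNA, with robust z-scores and luciferase per cell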
- Direction: total luciferase, z-score and total luciferase, % of control: higher = more reporter protein produced
- Call rule: 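An siRNA counts as active if its total luciferase robust z-score exceeds 3; genes with two or more such siRNAs out of three were retested with fresh siRNAs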
- Meaning of the calls: active = raised luciferase; inactive = no rise

RSL1D1 #1 scored total luciferase, z-score -0.706; total luciferase, % of control 67.9; inactive.
Knock-down of RSL1D1 #2 resulted in: total luciferase, z-score -1.36; total luciferase, % of control 54.8; inactive.
Silencing of RSL1D1 #3 came out at: total luciferase, z-score -0.365; total luciferase, % of control 74.6; inactive.
Depletion of NR2F1 #1 came out at: total luciferase, z-score 0.57; total luciferase, % of control 93.2; inactive.
After knock-down of NR2F1 #2, the screen gave total luciferase, z-score 0.0248; total luciferase, % of control 82.4; inactive.
NR2F1 #3 scored total luciferase, z-score 1.81; total luciferase, % of control 118; inactive.
Silencing of ZNF846 #1 resulted in: total luciferase, z-score 1.79; total luciferase, % of control 117; inactive.
For ZNF846 #2, the values are total luciferase, z-score 0.0457; total luciferase, % of control 82.8; inactive.
After knock-down of ZNF846 #3, the screen gave total luciferase, z-score 1.85; total luciferase, % of control 119; inactive.
Against COLGALT1 #1, the values are total luciferase, z-score 0.291; total luciferase, % of control 87.7; inactive.
After knock-down of COLGALT1 #2, the record shows total luciferase, z-score -0.515; total luciferase, % of control 71.6; inactive.
Against COLGALT1 #3, the entry reads total luciferase, z-score -0.348; total luciferase, % of control 75; inactive.
After knock-down of CBX8 #1, the screen gave total luciferase, z-score -0.225; total luciferase, % of control 77.4; inactive.
For CBX8 #2 the deposit lists total luciferase, z-score -0.941; total luciferase, % of control 63.2; inactive.
After knock-down of CBX8 #3, the screen gave total luciferase, z-score -1.79; total luciferase, % of control 46.3; inactive.
Against PRSS37 #1 the deposit lists total luciferase, z-score -3.14; total luciferase, % of control 19.5; inactive.
PRSS37 #2 showed total luciferase, z-score 0.755; total luciferase, % of control 96.9; inactive.
Depletion of PRSS37 #3 resulted in: total luciferase, z-score 0.332; total luciferase, % of control 88.5; inactive.
After knock-down of FAM218A #1 the results were total luciferase, z-score 0.794; total luciferase, % of control 97.7; inactive.
With knock-down of FAM218A #2, the screen gave total luciferase, z-score 1.57; total luciferase, % of control 113; inactive.
Against FAM218A #3, the entry reads total luciferase, z-score 0.202; total luciferase, % of control 85.9; inactive.

Part of the list above, reduced to “total luciferase, z-score”:
RSL1D1 #3: -0.365
NR2F1 #1: 0.57
NR2F1 #2: 0.0248
NR2F1 #3: 1.81
ZNF846 #1: 1.79

More results follow.
Depletion of TENT5C #1 gave: total luciferase, z-score 1.3; total luciferase, % of control 108; inactive.
After knock-down of TENT5C #2 the results were total luciferase, z-score 0.331; total luciferase, % of control 88.5; inactive.
TENT5C #3 gave total luciferase, z-score -1.38; total luciferase, % of control 54.4; inactive.
For AKR1B1 #1, the entry reads total luciferase, z-score 1.48; total luciferase, % of control 111; inactive.
AKR1B1 #2 gave total luciferase, z-score 0.931; total luciferase, % of control 100; inactive.
AKR1B1 #3 showed total luciferase, z-score 0.956; total luciferase, % of control 101; inactive.
Depletion of DHCR24 #1 resulted in: total luciferase, z-score 1.43; total luciferase, % of control 110; inactive.
Depletion of DHCR24 #2 resulted in: total luciferase, z-score -0.288; total luciferase, % of control 76.2; inactive.
DHCR24 #3 scored total luciferase, z-score -0.644; total luciferase, % of control 69.1; inactive.
IL17RE #1 showed total luciferase, z-score 0.312; total luciferase, % of control 88.1; inactive.
IL17RE #2 scored total luciferase, z-score 1.39; total luciferase, % of control 110; inactive.
Depletion of IL17RE #3 resulted in: total luciferase, z-score -0.757; total luciferase, % of control 66.8; inactive.
